Measurements: patent US6692922
No constants are given. Whether binding was seen depends on the method and setting. Some binding calls cover weakened binding; strength is not graded here.

Biological target: T1, human C-C chemokine receptor 10 (CCR10) expressed on L1/2 transfectants (human) (UniProt P46092)
T1 sequence (looked up): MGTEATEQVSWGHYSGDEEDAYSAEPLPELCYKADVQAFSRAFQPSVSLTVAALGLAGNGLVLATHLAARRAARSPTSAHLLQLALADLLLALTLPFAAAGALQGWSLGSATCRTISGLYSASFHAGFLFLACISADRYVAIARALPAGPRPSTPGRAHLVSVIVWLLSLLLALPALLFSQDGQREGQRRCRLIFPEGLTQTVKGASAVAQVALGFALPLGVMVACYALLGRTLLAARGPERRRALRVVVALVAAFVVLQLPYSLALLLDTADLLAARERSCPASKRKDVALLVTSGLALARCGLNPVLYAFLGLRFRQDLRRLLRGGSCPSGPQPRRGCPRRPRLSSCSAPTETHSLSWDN
Assay: inferred from chemotaxis of receptor transfectants

- binding: binds
B1: synthetic human mucosae-associated epithelial chemokine (MEC), predicted 105 amino acid mature protein (ligand)
chain: ILPIASSCCTEVSHHISRRLLERVNMCRIQRADGDCDLAAVILHVKRRRICVSPHNHTVKQWMKVQAAKKNGKGNVCHRKKHHGKRNSNRAHQGKHETYGHKTPY
modifications: biotin moiety (aminocaproic acid-biotin) added to Lysine 124
